The list shows a part of the results.
Each target was assayed with Cc1ncc(-c2ccnc(Nc3ccc(S(C)(=O)=O)cc3)n2)n1C(C)C (assay: log2 fold change, soluble protein after heating vs DMSO (PISA); higher = thermal stabilisation; K562 lysate, 10 uM; active = over 0.2 and 3.5 SD of the protein, either way, in both replicates (recomputed)).
In short: (§1)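 Quantification was by TMTpro 16plex LC-MS/MS with equalised channel sums, applied to the supernatant after 21,000xg for 90 min. Samples were crude K562 extract at 1 mg/mL protein in PBS pH 7.4 with 1 mM MgCl2, treated with 10 μM compound for 30 min, heated for 3 min across 48°C-58°C, pooled and brought to 0.5% NP-40 at 4°C. Values are log-two fold changes in thermal stability relative to solvent controls, from duplicates.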

The chains behind the UniProt entries cited, without tags or fusion partners. Where a name states a change or a piece, a line headed by the entry shows the natural chain unless it says otherwise.
UniProt Q9Y450, whole entry, looked up: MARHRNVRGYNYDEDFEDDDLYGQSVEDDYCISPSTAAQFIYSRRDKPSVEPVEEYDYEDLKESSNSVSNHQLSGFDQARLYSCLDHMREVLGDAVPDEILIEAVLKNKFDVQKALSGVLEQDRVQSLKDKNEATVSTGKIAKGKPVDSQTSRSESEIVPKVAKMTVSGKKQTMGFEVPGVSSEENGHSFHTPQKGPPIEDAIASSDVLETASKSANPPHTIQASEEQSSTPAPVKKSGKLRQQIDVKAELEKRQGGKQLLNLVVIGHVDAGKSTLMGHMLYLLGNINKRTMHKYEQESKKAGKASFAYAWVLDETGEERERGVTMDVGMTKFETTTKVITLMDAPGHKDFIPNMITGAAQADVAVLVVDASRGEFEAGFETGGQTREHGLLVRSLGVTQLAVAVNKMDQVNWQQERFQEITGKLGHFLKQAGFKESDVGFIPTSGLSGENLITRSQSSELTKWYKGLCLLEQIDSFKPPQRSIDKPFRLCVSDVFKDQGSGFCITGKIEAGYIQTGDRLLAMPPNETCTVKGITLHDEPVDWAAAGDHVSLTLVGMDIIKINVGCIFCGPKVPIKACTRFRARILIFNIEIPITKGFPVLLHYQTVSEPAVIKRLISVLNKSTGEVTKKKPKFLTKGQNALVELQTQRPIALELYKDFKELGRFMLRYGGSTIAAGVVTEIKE
UniProt Q9UBQ7: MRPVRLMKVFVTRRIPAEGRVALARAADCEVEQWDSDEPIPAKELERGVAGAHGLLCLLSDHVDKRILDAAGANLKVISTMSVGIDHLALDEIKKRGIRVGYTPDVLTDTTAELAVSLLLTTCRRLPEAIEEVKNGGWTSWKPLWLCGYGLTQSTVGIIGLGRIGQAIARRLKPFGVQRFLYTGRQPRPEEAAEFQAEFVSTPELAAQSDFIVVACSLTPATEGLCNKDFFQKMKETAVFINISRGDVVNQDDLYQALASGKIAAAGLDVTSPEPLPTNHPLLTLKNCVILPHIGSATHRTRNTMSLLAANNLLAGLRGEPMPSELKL
UniProt P52655, whole entry, looked up: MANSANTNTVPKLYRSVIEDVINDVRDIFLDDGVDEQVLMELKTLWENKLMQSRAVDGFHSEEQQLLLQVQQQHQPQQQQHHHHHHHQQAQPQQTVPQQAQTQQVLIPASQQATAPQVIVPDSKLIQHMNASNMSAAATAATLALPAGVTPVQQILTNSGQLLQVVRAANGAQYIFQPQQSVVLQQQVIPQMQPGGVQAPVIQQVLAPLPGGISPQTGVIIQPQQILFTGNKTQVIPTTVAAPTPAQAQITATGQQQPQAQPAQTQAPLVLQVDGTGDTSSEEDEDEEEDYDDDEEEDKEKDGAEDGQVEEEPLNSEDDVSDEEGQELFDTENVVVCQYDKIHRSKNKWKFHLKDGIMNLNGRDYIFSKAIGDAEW
UniProt Q9H0R4: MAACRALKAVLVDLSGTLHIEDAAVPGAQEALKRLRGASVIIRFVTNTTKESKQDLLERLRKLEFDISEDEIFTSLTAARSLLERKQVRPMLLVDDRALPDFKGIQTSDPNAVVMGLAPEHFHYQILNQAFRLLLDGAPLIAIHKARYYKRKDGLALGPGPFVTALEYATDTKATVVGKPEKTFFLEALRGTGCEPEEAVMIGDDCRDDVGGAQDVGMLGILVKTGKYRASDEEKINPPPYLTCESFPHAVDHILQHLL
UniProt Q86XA9: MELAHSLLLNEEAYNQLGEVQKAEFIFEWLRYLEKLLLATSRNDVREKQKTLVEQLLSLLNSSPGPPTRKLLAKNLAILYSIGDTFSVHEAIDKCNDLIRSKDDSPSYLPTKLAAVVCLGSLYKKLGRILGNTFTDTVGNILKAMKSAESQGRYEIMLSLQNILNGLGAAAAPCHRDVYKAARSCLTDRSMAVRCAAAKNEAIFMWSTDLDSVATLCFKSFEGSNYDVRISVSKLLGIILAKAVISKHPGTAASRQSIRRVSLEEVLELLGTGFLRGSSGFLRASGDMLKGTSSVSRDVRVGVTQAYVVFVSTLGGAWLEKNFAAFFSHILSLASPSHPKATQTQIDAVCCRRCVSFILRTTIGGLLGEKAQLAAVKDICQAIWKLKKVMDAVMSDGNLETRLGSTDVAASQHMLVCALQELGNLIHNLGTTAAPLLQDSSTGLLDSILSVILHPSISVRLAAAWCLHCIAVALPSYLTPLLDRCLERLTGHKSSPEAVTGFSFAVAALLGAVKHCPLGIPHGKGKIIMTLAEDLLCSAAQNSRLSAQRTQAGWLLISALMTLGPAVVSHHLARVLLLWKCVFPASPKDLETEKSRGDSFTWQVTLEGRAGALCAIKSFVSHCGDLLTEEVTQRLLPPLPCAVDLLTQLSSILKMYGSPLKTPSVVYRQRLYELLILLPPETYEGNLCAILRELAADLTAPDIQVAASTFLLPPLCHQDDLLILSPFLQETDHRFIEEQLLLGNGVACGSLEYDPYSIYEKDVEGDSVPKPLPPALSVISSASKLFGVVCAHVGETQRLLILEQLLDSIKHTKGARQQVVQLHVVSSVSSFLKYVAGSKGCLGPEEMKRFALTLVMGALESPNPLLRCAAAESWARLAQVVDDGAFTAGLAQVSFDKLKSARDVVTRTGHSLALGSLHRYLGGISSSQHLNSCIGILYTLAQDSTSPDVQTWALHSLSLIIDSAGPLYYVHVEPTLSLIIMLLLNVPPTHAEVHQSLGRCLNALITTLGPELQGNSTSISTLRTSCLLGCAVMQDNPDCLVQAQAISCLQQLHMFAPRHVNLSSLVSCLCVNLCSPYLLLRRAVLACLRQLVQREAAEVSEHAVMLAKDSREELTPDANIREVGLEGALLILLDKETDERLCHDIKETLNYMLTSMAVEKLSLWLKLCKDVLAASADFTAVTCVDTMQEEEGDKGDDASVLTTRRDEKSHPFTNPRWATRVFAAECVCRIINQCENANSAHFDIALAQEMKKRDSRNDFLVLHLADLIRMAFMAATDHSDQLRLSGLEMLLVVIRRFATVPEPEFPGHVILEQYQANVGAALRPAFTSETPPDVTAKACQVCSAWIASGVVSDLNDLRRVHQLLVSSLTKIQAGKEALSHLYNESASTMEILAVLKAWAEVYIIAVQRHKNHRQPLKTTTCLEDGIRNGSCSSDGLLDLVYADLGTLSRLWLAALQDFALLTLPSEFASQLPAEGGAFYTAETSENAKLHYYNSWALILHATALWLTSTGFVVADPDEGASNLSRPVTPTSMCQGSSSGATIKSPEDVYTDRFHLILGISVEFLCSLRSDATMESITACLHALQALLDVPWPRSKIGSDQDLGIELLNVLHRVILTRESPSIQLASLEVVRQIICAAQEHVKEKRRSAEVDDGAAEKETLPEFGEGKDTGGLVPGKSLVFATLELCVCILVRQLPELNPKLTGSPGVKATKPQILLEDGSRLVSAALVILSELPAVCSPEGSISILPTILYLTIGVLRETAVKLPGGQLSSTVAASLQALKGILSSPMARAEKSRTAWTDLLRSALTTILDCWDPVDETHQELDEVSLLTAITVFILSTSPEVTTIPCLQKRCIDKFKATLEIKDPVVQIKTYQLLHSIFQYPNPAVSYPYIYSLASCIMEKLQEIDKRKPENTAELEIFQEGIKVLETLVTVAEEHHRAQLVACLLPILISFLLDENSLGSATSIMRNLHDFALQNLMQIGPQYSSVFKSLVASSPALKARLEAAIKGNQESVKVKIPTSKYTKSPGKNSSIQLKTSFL
UniProt Q9BQ67, whole entry, looked up: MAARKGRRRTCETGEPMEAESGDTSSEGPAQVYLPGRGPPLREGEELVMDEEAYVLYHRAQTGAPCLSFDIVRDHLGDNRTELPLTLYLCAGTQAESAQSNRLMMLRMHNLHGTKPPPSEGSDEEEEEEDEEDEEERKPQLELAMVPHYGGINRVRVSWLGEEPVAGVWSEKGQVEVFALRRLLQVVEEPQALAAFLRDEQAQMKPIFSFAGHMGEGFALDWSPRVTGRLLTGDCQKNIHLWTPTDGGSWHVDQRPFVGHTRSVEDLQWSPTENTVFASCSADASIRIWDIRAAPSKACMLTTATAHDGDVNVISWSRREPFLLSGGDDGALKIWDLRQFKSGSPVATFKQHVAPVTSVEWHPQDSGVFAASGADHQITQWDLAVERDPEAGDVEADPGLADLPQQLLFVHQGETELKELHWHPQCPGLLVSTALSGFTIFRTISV
UniProt Q7Z4V5: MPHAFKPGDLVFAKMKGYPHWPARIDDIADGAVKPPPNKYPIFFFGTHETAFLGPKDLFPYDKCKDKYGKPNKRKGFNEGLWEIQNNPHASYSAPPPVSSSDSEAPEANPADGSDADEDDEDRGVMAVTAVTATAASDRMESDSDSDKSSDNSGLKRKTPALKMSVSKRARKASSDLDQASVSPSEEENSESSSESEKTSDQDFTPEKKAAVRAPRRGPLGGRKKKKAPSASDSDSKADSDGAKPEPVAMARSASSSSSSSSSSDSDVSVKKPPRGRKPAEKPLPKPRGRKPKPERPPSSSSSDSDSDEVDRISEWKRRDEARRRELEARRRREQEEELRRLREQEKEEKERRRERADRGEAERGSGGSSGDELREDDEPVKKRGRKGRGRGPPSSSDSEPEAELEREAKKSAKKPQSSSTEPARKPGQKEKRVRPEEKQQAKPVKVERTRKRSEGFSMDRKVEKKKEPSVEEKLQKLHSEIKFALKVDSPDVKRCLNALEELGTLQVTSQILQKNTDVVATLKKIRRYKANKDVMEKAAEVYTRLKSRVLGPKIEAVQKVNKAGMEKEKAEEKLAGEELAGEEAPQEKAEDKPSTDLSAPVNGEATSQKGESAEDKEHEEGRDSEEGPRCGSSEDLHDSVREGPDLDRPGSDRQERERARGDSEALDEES
UniProt Q92522: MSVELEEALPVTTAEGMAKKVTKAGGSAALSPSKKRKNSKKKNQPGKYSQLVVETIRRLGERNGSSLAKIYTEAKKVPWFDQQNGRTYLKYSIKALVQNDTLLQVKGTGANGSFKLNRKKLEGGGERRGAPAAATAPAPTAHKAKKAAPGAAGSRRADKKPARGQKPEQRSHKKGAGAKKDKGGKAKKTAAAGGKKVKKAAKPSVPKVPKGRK
UniProt P78417: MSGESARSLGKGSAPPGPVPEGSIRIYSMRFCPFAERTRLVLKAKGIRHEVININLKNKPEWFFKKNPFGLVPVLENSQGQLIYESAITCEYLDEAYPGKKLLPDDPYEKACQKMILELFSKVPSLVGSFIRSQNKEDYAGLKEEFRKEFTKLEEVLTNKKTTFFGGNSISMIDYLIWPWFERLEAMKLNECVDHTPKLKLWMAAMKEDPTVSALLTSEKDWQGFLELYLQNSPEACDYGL
UniProt Q16836: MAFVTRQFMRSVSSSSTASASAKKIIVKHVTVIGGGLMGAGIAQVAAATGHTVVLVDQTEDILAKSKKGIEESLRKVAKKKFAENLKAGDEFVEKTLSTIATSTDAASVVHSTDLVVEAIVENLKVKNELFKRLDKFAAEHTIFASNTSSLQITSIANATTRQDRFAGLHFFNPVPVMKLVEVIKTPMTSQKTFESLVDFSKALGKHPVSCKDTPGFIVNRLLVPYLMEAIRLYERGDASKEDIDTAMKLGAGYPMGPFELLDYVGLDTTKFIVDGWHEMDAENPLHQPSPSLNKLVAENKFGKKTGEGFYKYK
UniProt O75791: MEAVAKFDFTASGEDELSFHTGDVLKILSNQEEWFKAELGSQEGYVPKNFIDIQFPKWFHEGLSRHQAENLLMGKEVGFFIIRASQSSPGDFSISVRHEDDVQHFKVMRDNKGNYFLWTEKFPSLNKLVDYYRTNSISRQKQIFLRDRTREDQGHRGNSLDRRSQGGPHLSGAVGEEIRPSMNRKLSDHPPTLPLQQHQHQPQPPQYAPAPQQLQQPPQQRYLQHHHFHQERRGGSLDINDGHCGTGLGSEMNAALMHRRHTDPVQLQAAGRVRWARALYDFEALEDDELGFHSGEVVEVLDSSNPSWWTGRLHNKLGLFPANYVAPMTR
UniProt P69892: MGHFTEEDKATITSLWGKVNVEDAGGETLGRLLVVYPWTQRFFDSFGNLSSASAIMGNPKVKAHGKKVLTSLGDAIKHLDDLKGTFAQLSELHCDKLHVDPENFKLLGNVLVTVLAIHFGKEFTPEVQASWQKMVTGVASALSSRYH
UniProt P55084: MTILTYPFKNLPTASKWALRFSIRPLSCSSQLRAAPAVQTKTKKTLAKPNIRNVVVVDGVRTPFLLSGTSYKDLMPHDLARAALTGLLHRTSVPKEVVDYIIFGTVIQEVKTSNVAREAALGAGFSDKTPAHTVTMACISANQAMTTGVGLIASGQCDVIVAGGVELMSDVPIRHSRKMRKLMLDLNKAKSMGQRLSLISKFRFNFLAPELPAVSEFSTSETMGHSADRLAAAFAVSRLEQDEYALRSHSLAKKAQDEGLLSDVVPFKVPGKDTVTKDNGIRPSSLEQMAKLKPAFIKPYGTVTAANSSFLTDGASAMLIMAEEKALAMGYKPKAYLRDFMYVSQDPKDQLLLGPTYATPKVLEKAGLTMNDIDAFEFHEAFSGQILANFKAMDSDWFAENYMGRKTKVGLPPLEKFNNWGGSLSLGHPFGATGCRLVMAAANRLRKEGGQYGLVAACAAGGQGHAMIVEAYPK

log2 fold change, inactive:
HDAC3 (UniProt O15379) -0.026
GTF2H3 (UniProt Q13889) 0.042
HDAC6 (UniProt Q9UBN7) -0.034
HBS1L isoform 2 (UniProt Q9Y450) 0.074
GRHPR (UniProt Q9UBQ7) 0.005
HAUS3 (UniProt Q68CZ6) 0.008
GTF3C6 (UniProt Q969F1) -0.088
GTF2A1 (UniProt P52655) 0.095
H2AZ1 (UniProt P0C0S5) -0.011
GXYLT1 (UniProt Q4G148) -0.026
HDHD2 (UniProt Q9H0R4) 0.035
HDAC1 (UniProt Q13547) -0.019
HEATR5A (UniProt Q86XA9) 0.004
GTF2E2 (UniProt P29084) -0.025
GRWD1 (UniProt Q9BQ67) -0.012

Each target was assayed with Cn1cc(-c2ccc3c(c2)CCN3C(=O)Cc2cccc(C(F)(F)F)c2)c2c(N)ncnc21 in the same assay as above.
In short: as §1

log2 fold change, inactive:
HAGH (UniProt Q16775) -0.043
HDGFL2 isoform 2 (UniProt Q7Z4V5) -0.023
GTPBP2 (UniProt Q9BX10) 0.005
H1FX (UniProt Q92522) -0.001
GSTZ1 (UniProt G3V4T6) 0.083
HBG1 (UniProt P69891) -0.053
H4C1 (UniProt P62805) 0.048
GSTO1 (UniProt P78417) 0.014
GSR (UniProt P00390) -0.028
HBD (UniProt P02042) -0.009
HADHA (UniProt P40939) 0.03
GSKIP (UniProt Q9P0R6) -0.037
HADH isoform 2 (UniProt Q16836) 0.008
GRAP2 (UniProt O75791) 0.001
HAUS2 (UniProt Q9NVX0) 0.05
HBG2 (UniProt P69892) -0.007
GTF3C3 (UniProt Q9Y5Q9) 0.009
GYS1 (UniProt P13807) 0.064
HADHB (UniProt P55084) 0.066
GPX4 (UniProt P36969) -0.024
HEATR1 (UniProt Q9H583) 0.023
HDLBP, A0A024R4E5 0.015
GTF2F2 (UniProt P13984) 0.001
GSTM3 (UniProt P21266) 0.155
HDAC3 (UniProt O15379) 0.007
GTF2H3 (UniProt Q13889) 0.052
HDAC6 (UniProt Q9UBN7) 0.042
HBS1L isoform 2 (UniProt Q9Y450) -0.081
GRHPR (UniProt Q9UBQ7) -0.019
HAUS3 (UniProt Q68CZ6) 0.003
GTF3C6 (UniProt Q969F1) 0.001
GTF2A1 (UniProt P52655) 0.046
H2AZ1 (UniProt P0C0S5) 0.016
GXYLT1 (UniProt Q4G148) -0.17
HDHD2 (UniProt Q9H0R4) 0.014
HDAC1 (UniProt Q13547) 0.028
HEATR5A (UniProt Q86XA9) 0
GTF2E2 (UniProt P29084) 0.024
GRWD1 (UniProt Q9BQ67) 0.052
